The results in this text go back to publication doi:10.1101/2020.03.11.987446.

Results are given in words; binding and its absence hold for the method and conditions named. Binding calls can cover weak binding; strength is not graded here. Tags and fused reporters may be left off the sequences shown.

In assay [1] the target is collagen IV from human placenta (human). Put plainly: fluorescence.
Assay [2] has as its target collagen I (collagen I pre-coated 96-well plates, Greiner 655956). The assay can be described thus: fluorescence of protein bound to coated microplates.

B1: ColBD-Twitch (N-terminal 6xHis tag, vWF collagen-binding peptide … and Twitch-2B 54S+) (peptide)
chain: WREPSFMALS
In the case of B1, the binding result in assay [1] and in assay [2] was “binds” each time.
